Reference: paper PMC10035768
Results are given in words; binding and its absence hold for the method and conditions named. Binding seen in cells or lysates may run through a third protein. Some entries that bind do so weakly or less than the wild type.

Chains of the proteins cited; added tags and fusions are not shown. Lines headed by an entry give the natural chain unless they say otherwise; changes in a name come on top. A line that says so, or that is headed by a name, gives the form on record, which may keep a tag or linker.
UniProt P31946: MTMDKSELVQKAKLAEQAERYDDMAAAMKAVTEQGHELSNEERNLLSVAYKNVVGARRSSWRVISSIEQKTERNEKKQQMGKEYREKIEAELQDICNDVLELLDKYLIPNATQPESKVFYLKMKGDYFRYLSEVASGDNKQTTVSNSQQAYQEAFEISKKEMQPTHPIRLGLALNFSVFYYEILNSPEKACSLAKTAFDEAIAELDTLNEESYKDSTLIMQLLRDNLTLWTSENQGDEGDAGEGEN
0N3R tau expressed in HEK 293T cells (P10636-2, form named): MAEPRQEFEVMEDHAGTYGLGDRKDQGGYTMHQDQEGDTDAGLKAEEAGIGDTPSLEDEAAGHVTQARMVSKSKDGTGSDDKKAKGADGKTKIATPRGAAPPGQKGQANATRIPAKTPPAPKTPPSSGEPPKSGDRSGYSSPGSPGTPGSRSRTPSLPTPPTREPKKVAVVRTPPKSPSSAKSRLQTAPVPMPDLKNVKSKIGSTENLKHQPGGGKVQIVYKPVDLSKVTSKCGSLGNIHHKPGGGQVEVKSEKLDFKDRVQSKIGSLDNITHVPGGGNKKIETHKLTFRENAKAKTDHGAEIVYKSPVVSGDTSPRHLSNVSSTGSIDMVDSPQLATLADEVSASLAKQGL
0N4R tau expressed in HEK 293T cells (P10636-6, form named): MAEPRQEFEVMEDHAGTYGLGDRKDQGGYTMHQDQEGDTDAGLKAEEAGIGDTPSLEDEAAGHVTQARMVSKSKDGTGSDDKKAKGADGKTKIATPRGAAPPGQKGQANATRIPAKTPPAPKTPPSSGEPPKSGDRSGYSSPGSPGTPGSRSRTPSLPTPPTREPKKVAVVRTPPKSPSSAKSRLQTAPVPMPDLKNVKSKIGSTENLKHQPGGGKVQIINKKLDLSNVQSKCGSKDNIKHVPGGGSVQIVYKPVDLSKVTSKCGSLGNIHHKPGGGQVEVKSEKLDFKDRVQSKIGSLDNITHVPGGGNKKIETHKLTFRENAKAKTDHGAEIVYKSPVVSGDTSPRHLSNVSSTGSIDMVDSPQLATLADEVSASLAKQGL

Target: FLAG HA 14-3-3 β expressed in HEK 293T cells (UniProt P31946)
Test: co-IP; HEK 293T cells co-transfected with 3R or 4R tau and FLAG-14-3-3-β; 500 μg lysate, anti-FLAG M2 on protein A/G magnetic beads; Western blot with HT7 (tau) and anti-14-3-3 β

| Substance | binding |
| --- | --- |
| 0N3R tau expressed in HEK 293T cells (from UniProt P10636-2 1-352) | no binding |
| 0N4R tau expressed in HEK 293T cells (from UniProt P10636-6 1-383) | binds |
